# Screening data, single-dose tests

By UniProt entry, the sequences of proteins in these tests, tags left out.
UniProt P9WPC5, whole entry: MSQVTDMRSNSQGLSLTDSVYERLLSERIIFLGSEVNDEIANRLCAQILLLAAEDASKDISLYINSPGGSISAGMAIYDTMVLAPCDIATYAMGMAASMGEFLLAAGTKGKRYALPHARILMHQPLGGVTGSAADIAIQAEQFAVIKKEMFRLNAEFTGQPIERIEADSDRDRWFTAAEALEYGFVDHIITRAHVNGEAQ
UniProt P9WPC3, whole entry partner: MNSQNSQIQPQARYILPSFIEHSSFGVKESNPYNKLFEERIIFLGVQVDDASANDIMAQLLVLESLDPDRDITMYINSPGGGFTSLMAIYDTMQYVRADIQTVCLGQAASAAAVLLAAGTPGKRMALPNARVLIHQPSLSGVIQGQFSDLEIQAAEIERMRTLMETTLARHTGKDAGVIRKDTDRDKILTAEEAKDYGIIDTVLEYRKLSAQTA

Source: ChEMBL document CHEMBL3988442, “University of Dundee, Small-Polar-MMV Screening Library” (2021).

The filed quantity is “Percent Effect” (%).
How 0% and 100% were set is not recorded. Most values in the screen are low, and negative values occur.
Compounds were drawn at random from those tested, without regard to their results.

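Protease assay of ClpP1P2, read by the AMC dye that it sets free. Target: ClpP1P2, Mycobacterium tuberculosis (UniProt P9WPC5 and UniProt P9WPC3). Tested at 50 µM. Direction is inferred from only a few compounds that gave an IC50; most scored high, so higher reads as stronger inhibition. Most other retested compounds had strongly negative values. Of about 69,000 compounds tested this way, about 10 (0.015%) reached 50% or more in at least one test.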

| # | structure | effect |
|---|---|---|
| 1 | `Cn1cnnc1C1CCCN(C(=O)NCCn2ccnc2)C1` (centres undefined) | -18.32 |
| 2 | `CCc1cnc(N)nc1N(C)CCc1cnn(C)c1` | 19.18 |
| 3 | `Cc1csc(Nc2nccnc2C2CCCN2CC(N)=O)n1` (centres undefined) | 7.049 |
| 4 | `Cc1cc(NC(=O)NCCc2cccnc2)n(C)n1` | -4.287 |
| 5 | `COc1ccccc1-n1nc(-c2ccco2)n(CC(=O)NC(C)C)c1=O` | -4.907 |
| 6 | `CC(C)(C)S(=O)(=O)CCNC(=O)c1ccc2cc[nH]c2c1` | -3.932 |
| 7 | `CCCS(=O)(=O)N1C[C@@H](OCc2ccncc2)[C@H]2OCCC[C@H]21` | 7.361 |
| 8 | `CCN1CCn2c(C)cnc2C12CCN(C(=O)c1cscn1)CC2` | 18.63 |
| 9 | `Cc1cccnc1CN1CCC(c2nnc(Cn3cccn3)n2C)CC1` | -10.14 |
| 10 | `CN1CCN(Cc2nc3c(s2)CCCC3)[C@H]2CS(=O)(=O)C[C@H]21` | 14.18 |
| 11 | `COC(=O)c1cc(NCC(=O)NC(N)=O)cc(C(F)(F)F)c1` | -7.868 |
| 12 | `Cn1cc(C2CCCN2CCc2nc3ccccc3c(=O)[nH]2)cn1` (centres undefined) | -20.63 |
| 13 | `Cc1cc(C(=O)N2CCN(Cn3cc(Cl)cn3)CC2)on1` | -0.07336 |
| 14 | `CC(O)CN1CCC(CNCc2cccc(Br)c2)CC1` (centres undefined) | -4.792 |
| 15 | `CC(=O)NCCc1ccc(S(=O)(=O)N(CC(C)C)C(C)C)s1` | 13 |
| 16 | `Cc1cccc(CN2Cc3ccnn3CC(COCC3CC3)C2)n1` (centres undefined) | 3.263 |
| 17 | `Cn1ccnc1NC[C@@H]1CCC[C@@H]2CN(Cc3cccnc3)C[C@@H]21` | 17.77 |
| 18 | `CCSc1cc(C(=O)N(C(C)C)C2CC2)ccn1` | -2.048 |
| 19 | `CN1C(=O)[C@H]2CC[C@@H]1CN(Cc1cccc(OCc3ccccn3)c1)C2` | 2.131 |
| 20 | `Cc1ccc(CC(=O)N2CCCC(c3cc(C)[nH]n3)C2)cn1` (centres undefined) | 8.314 |
| 21 | `CCNC(=O)[C@@H]1C[C@H](N)CN1C(=O)c1c[nH]c2ccccc12` | -1.945 |
| 22 | `Cc1cccc(-c2c[nH]c(C3CCCN3C(=O)C3CCOCC3)n2)c1` (centres undefined) | -6.108 |
| 23 | `CC(CN1CCCC1=O)NC(=O)c1cc(Cl)c2c(c1)OCO2` (centres undefined) | -5.784 |
| 24 | `CO[C@@H]1CCN(Cc2c(C)noc2C)[C@@H]2CN(Cc3cccnc3)C[C@@H]21` | 0.5633 |
| 25 | `COCCCSc1ccc(NCc2cscn2)cc1` | -7.398 |
| 26 | `CN(C)CCOCC1CN(Cc2cccs2)Cc2ccnn2C1` (centres undefined) | 1.86 |
| 27 | `O=C(CCCn1cncn1)N1CCC2(CCCN(CC3CC3)C2=O)C1` (centres undefined) | -1.747 |
| 28 | `CC(C)N1[C@H](CN2CCCC2)C[C@@H]2CN(Cc3ccoc3)CC[C@@H]21` | -1.983 |
| 29 | `CCn1c(NCc2ccccc2)nc2c(C)nn(C)c2c1=O` | 6.623 |
| 30 | `Cc1ncnc2c1CCN(C(=O)Cc1ccccn1)CC2` | -0.129 |
| 31 | `CCc1nnc2n1CCN(Cc1csc(-c3ccccc3)n1)C2` | -5.789 |
| 32 | `CN(Cc1cccc(O)c1)CC1CCCN(CCc2ccc(Cl)cc2)C1` (centres undefined) | -7.103 |
| 33 | `Cc1nn(C)c2c(N3CCN(C(=O)C4CCC4)CC3)ncnc12` | 14.76 |
| 34 | `CCCC(C#N)NC(=O)CCCOc1cccc(F)c1` (centres undefined) | -3.206 |
| 35 | `CCCc1noc(CCC(=O)N2CCCC2Cn2cc(C)cn2)n1` (centres undefined) | -12.98 |
| 36 | `O=C(O)CCc1nc2nccc(C(F)(F)F)n2n1` | -4.809 |
| 37 | `COCCN(CC(C)C)c1cc(C)ncn1` | -9.005 |
| 38 | `O=C(NCc1ccc(Br)cc1F)C1(O)CCSCC1` | -0.6062 |
| 39 | `CC[S+](CC)[c-]1c(=O)[nH]c(=O)n(CCc2ccc(F)cc2)c1=O` | -14.34 |
| 40 | `COCCNC(=O)[C@H]1C[C@@H]2CCN(c3ccccc3)C[C@H]2O1` | -19.24 |
| 41 | `Nc1cc(CCCNC(=O)NC2CCCC2)nn1-c1ccccc1` | 2.51 |
| 42 | `Cc1nccc([C@@H]2C[C@@H]3CCN(Cc4ccco4)C[C@H]3O2)n1` | 4.843 |
| 43 | `CCn1cc(S(=O)(=O)NC2CCCN(CCCc3ccccc3)C2)cn1` (centres undefined) | -20.42 |
| 44 | `Cc1nc(C2CCCN2Cc2nnc(Cc3ccccc3)o2)no1` (centres undefined) | -4.857 |
| 45 | `O=C(CN1CC(c2nc(C3CC3)no2)C1)NCc1ccc(F)cc1` | 5.988 |
| 46 | `COCc1cc(N(C)Cc2ncnn2C)nc(C(C)(C)C)n1` | -3.359 |
| 47 | `CN(C)S(=O)(=O)c1ccc2c(c1)N(Cc1nccn1C)CCC2` | -1.079 |
| 48 | `O=C(Nc1ccc2c(ccn2CCN2CCOCC2)c1)c1ccccn1` | -7.337 |
| 49 | `O=C1CSc2ccccc2N1CC(=O)N1CCCCC1c1nccs1` (centres undefined) | 3.059 |
| 50 | `CC(C)(C)CC(=O)NCC(=O)Nc1ccn(CCCn2ccnc2)n1` | -4.245 |
| 51 | `OC(COc1ccc2c(c1)OCO2)CN1CC(n2cccn2)C1` (centres undefined) | -6.564 |
| 52 | `Cc1csc(N2CCN(C(=O)c3cc(Cl)c[nH]3)CC2)n1` | -19.01 |
| 53 | `COCCN1CCN(c2ccc(C)nn2)Cc2cccnc21` | -2.257 |
| 54 | `COc1c(Cl)cc(C(=O)NCCNc2ncccn2)cc1Cl` | 12.29 |
| 55 | `CC(Cn1cncn1)NCc1ccc2nonc2c1` (centres undefined) | 3.035 |
| 56 | `Cc1ccc(CNC(=O)Nc2nncs2)cn1` | 3.655 |
| 57 | `CN(Cc1cccc(F)c1)C(=O)CN1CCCC1CCc1ccccc1` (centres undefined) | -20.65 |
| 58 | `CCn1ccnc1CN1CCN(CCOc2ccc(C#N)cc2)CC1` | -12.35 |
| 59 | `CCN1CC2(CC1=O)CN(C(=O)COC)CCN(S(C)(=O)=O)C2` (centres undefined) | -8.22 |
| 60 | `CCn1c(CN2CCC(O)(c3ccc4c(c3)OCO4)CC2)cnc1SC` | -11.86 |
| 61 | `CC(C)CC(NC(=O)CSCC(N)=O)c1cccs1` (centres undefined) | -9.242 |
| 62 | `O=C(NCCn1cccc1)C(c1cccnc1)N1CCCC1` (centres undefined) | -4.875 |
| 63 | `NC(=O)CN1CCCN(C(=O)c2ccn(-c3ccccc3)n2)CC1` | -1.876 |
| 64 | `CC(Cn1ccnc1)NC(=O)C1(c2ccc(F)cc2)CCCC1` (centres undefined) | 4.199 |
| 65 | `O=C(CN1CCOC(c2ccccc2C(F)(F)F)C1)NC1CC1` (centres undefined) | -6.012 |
| 66 | `COc1ccc(CN2CCN(C(C)=O)CC2)cc1SC(F)(F)F` | -3.217 |
| 67 | `CC(C)OC(=O)NCc1ccc(NCc2cnn(C(C)(C)C)c2)cc1` | -7.546 |
| 68 | `COc1ccc(C(NCc2cccc(O)c2)C2CC2)cc1` (centres undefined) | 4.088 |
| 69 | `CN(Cc1cccnc1)C1CC2(CCN(c3ncccn3)CC2)C1` | -1.266 |
| 70 | `CCCC(C)CN1CCC(n2cc(C3CCCC3)nn2)CC1` (centres undefined) | -15.5 |
| 71 | `O=C(O)CNC(=O)Cc1csc(-c2ccccc2F)n1` | 6.51 |
| 72 | `CCNC(=O)C1CCCN(C(=O)Nc2ccc3c(c2)CCCN3C)C1` (centres undefined) | -7.547 |
| 73 | `CCC1c2ccsc2CCN1C(=O)NCCNc1ncccn1` (centres undefined) | 6.545 |
| 74 | `CCc1ccsc1C(=O)NC(C#N)CC` (centres undefined) | 2.774 |
| 75 | `CC1N(CC2CC2)C(=O)COC12CCN(C(=O)c1ccncc1)CC2` (centres undefined) | -3.246 |
| 76 | `O=C(c1cccc2c1OCO2)N1CCCC(n2cccn2)C1` (centres undefined) | -1.783 |
| 77 | `O=C(NCc1ccccn1)NC1CCCN(c2ncccn2)C1` (centres undefined) | 3.326 |
| 78 | `N#CCC(=O)NCc1nnc2n1CCN(Cc1nccs1)C2` | 1.501 |
| 79 | `COc1ccc(CCc2nnc(NC(=O)C3CC34CCC4)s2)cc1OC` (centres undefined) | -9.839 |
| 80 | `CN(C)Cc1ccc(C(=O)N2CCCC(COc3ccc(F)cc3)C2)o1` (centres undefined) | -0.3538 |
| 81 | `Cc1cccc(S(=O)(=O)NC2CCN(CC(F)(F)F)C2)c1` (centres undefined) | -4.326 |
| 82 | `O=C(Cc1csc(-c2ccoc2)n1)NCCCN1CCCCC1` | -2.166 |
| 83 | `Cc1cc(C)n(CC2CCCN2Cc2c(C)noc2C)n1` (centres undefined) | 1.925 |
| 84 | `Cc1ccc(N2CCCC(N(C)Cc3cc(C)on3)C2)nn1` (centres undefined) | -15.43 |
| 85 | `Cc1cc(C)n(CC(C)CNC(=O)[C@@H](C)NC(=O)OC(C)(C)C)n1` (some centres undefined) | -5.959 |
| 86 | `CC(C)CN1CC(C(=O)NCCOc2ccc3c(c2)OCO3)CC1=O` (centres undefined) | -22.3 |
| 87 | `CN(C)C(=O)N1CCN(Cc2ccccc2)[C@@H]2CS(=O)(=O)C[C@@H]21` | 3.125 |
| 88 | `CCN(CC)C(=O)CNC(=O)N1CCC(c2ccc(OC)cc2)C1` (centres undefined) | -5.346 |
| 89 | `CC(C)N1CCC(NC(=O)NC2CCOc3ccc(Br)cc32)CC1` (centres undefined) | -3.648 |
| 90 | `COCC(NC(=O)NCc1sccc1C)c1ccco1` (centres undefined) | -1.566 |

Once more, the final 9:

With O=C(Cc1csc(-c2ccoc2)n1)NCCCN1CCCCC1 the screen gave -2.166%.
With Cc1cc(C)n(CC2CCCN2Cc2c(C)noc2C)n1 (centres undefined) the screen gave 1.925%.
With Cc1ccc(N2CCCC(N(C)Cc3cc(C)on3)C2)nn1 (centres undefined) the screen gave -15.43%.
With Cc1cc(C)n(CC(C)CNC(=O)[C@@H](C)NC(=O)OC(C)(C)C)n1 (some centres undefined) the screen gave -5.959%.
With CC(C)CN1CC(C(=O)NCCOc2ccc3c(c2)OCO3)CC1=O (centres undefined) the screen gave -22.3%.
With CN(C)C(=O)N1CCN(Cc2ccccc2)[C@@H]2CS(=O)(=O)C[C@@H]21 the screen gave 3.125%.
With CCN(CC)C(=O)CNC(=O)N1CCC(c2ccc(OC)cc2)C1 (centres undefined) the screen gave -5.346%.
With CC(C)N1CCC(NC(=O)NC2CCOc3ccc(Br)cc32)CC1 (centres undefined) the screen gave -3.648%.
With COCC(NC(=O)NCc1sccc1C)c1ccco1 (centres undefined) the screen gave -1.566%.